Test results as given in US20020127657A1.
These are yes or no findings as the source states them, for the method shown. For some assays here: Binding seen in cells or lysates may run through a third protein. Some entries that bind do so weakly or less than the wild type. For some assays here: Where a sequence is shown, tags or fusion partners need not be part of it. Values belong to the binder of their own block, whether it stands above or below them.

Sequences of proteins named here, by UniProt entry; tags and fusion partners are left off. A change or cut given only in a name is not applied to a line headed by its entry. Residues count along the entry.
UniProt P06729: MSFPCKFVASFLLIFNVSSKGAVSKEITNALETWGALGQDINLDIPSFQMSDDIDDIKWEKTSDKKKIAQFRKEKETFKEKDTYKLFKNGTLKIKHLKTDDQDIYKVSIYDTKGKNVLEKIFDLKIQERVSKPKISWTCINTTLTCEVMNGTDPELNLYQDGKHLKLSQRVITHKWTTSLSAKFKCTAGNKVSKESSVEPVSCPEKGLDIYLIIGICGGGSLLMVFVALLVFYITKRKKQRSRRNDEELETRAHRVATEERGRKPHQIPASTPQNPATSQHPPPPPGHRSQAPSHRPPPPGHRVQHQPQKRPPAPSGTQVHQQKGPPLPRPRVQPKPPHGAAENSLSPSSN
human CD2: residues 25-351 of P06729
CD2 cytoplasmic region (CD2221-327): residues 245-351 of P06729
CD2221-299: residues 245-323 of P06729
CD2221-282 (yeast two-hybrid construct): residues 245-306 of P06729

How the values were obtained:
[1] = target: GST-fusion of the truncated CD2 tail (CD2221-282) (human) (UniProt P06729); assay: in vitro co-immunoprecipitation on GST-CD2 beads, with and without ZnCl2
CD2221-299 (human) = CD2221-299 (human) (UniProt P06729); assay: yeast two-hybrid
[2] = target: CD2221-282 (yeast two-hybrid construct) (human) (UniProt P06729); assay: yeast two-hybrid
[3] = target: CD2 cytoplasmic region (CD2221-327) (human) (UniProt P06729); assay: yeast two-hybrid
human CD2 (human) [4] = target: human CD2 (human) (UniProt P06729); assay: co-immunoprecipitation from Jurkat transformants, anti-CD2 Western blot
human CD2 (human) [5] = target: human CD2 (human) (UniProt P06729); assay: co-immunoprecipitation from COS7 cells, anti-FLAG Western blot
human CD2 (human) [6] = target: human CD2 (human) (UniProt P06729); assay: co-immunoprecipitation with anti-FLAG mAb from Jurkat transfectants, anti-CD2 Western blot
human CD2 (human) [7] = target: human CD2 (human) (UniProt P06729); assay: co-immunoprecipitation with anti-CD2 mAb from cotransfected COS7 cells, anti-FLAG Western blot

binding [1]: binds
B1: CD2BP2 GYF domain (protein)
chain: DVMWEYKWENTGDAELYGPFTSAQMQTWVSEGYFPDGVYCRKLDPPGGQFYNSKRIDFDLYT

binding (CD2221-299 (human)): binds | binding [2]: binds
B2: CD2 binding protein 2 (CD2BP2) (protein)
chain: MPKRKVTFQGVGDEEDEDEIIVPKKKLVDPVAGSGGPGSRFKGKHSLDSDEEEDDDDGGSSKYDILASEDVEGQEAATLPSEGGGRITPFNLQEEMEEGHFDADGNYFLNRDAQIRDSWLDNIDWVKIRERPPGQRQASDSEEEDSLGQTSMSAQALLEGLLELLLPRETVAGALRRLGARGGGKGRKGPGQPSSPQRLDRLSGLADQMVARGNLGVYQETRERLAMRLKGLGCQTLGPHNPTPPPSLDMFAEELAEEELETPTPTQRGEAESRGDGLVDVMWEYKWENTGDAELYGPFTSAQMQTWVSEGYFPDGVYCRKLDPPGGQFYNSKRIDFDLYT

binding [3]: binds
B3: CD2BP2129-341 (protein)
chain: RERPPGQRQASDSEEEDSLGQTSMSAQALLEGLLELLLPRETVAGALRRLGARGGGKGRKGPGQPSSPQRLDRLSGLADQMVARGNLGVYQETRERLAMRLKGLGCQTLGPHNPTPPPSLDMFAEELAEEELETPTPTQRGEAESRGDGLVDVMWEYKWENTGDAELYGPFTSAQMQTWVSEGYFPDGVYCRKLDPPGGQFYNSKRIDFDLYT

binding (human CD2 (human) [4]): binds | binding (human CD2 (human) [5]): binds | binding (human CD2 (human) [6]): binds | binding (human CD2 (human) [7]): binds
B4: FLAG-CD2BP2 (protein)
chain: DYKDDDDKMPKRKVTFQGVGDEEDEDEIIVPKKKLVDPVAGSGGPGSRFKGKHSLDSDEEEDDDDGGSSKYDILASEDVEGQEAATLPSEGGGRITPFNLQEEMEEGHFDADGNYFLNRDAQIRDSWLDNIDWVKIRERPPGQRQASDSEEEDSLGQTSMSAQALLEGLLELLLPRETVAGALRRLGARGGGKGRKGPGQPSSPQRLDRLSGLADQMVARGNLGVYQETRERLAMRLKGLGCQTLGPHNPTPPPSLDMFAEELAEEELETPTPTQRGEAESRGDGLVDVMWEYKWENTGDAELYGPFTSAQMQTWVSEGYFPDGVYCRKLDPPGGQFYNSKRIDFDLYT
